Source: PubChem BioAssay AID1259254 (NCATS, 2017)
In all, the deposit lists about 59,000 reagents; below is a part drawn at random. About 1,550 of all reagents (2.6%) count as active. 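G2 share is only a proxy for re-replication; each gene was hit by three separate siRNAs, and active genes were retested.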 Reagents against one gene are numbered here. Further read-outs or replicates are left out here. Not stated in the record: the amount of reagent.

Test: 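Genome-wide screen for genes that prevent DNA re-replication in cancer cells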 (primary screen)
Cells: human HCT116 colorectal cancer cells
Knock-down reagent: single siRNA against human genes
Timing: 3 days
Read-out: 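Imaged Hoechst DNA stain sorts each cell into a cycle phase by DNA amount; per plate, G2 fraction set to 0% for non-targeting and 100% for GMNN siRNA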
Reading the numbers: G2 robust z-score and G2 cells, % of GMNN control: higher = more G2 cells, more excess DNA replication
Call rule: 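An siRNA counts as active if its G2 robust z-score lies at least 5 MADs above the screen median; here such calls match roughly 38% of GMNN control or more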

With SERTAD1 (GeneID 29950) #1, how do the results read?
G2 robust z-score: -1.09; G2 cells, % of GMNN control: -4.69; call: inactive

For SERTAD1 (GeneID 29950) #2, how do the results read?
G2 robust z-score: -0.393; G2 cells, % of GMNN control: 0.204; call: inactive

For SERTAD1 (GeneID 29950) #3, what does the deposit list?
G2 robust z-score: 3.56; G2 cells, % of GMNN control: 28; call: inactive

For C1orf21 (GeneID 81563) #1, what does the deposit list?
G2 robust z-score: 5.9; G2 cells, % of GMNN control: 44.5; call: active

Which result is listed for C1orf21 (GeneID 81563) #2?
G2 robust z-score: 0.534; G2 cells, % of GMNN control: 6.73; call: inactive

With C1orf21 (GeneID 81563) #3, how do the results read?
G2 robust z-score: -0.503; G2 cells, % of GMNN control: -0.574; call: inactive

What is on record for APAF1 (GeneID 317) #1?
G2 robust z-score: 0.151; G2 cells, % of GMNN control: 4.03; call: inactive

With APAF1 (GeneID 317) #2, how do the results read?
G2 robust z-score: -1.29; G2 cells, % of GMNN control: -6.08; call: inactive

How did the screen score APAF1 (GeneID 317) #3?
G2 robust z-score: -0.721; G2 cells, % of GMNN control: -2.11; call: inactive

With RGS9 (GeneID 8787) #1, what was measured?
G2 robust z-score: -0.116; G2 cells, % of GMNN control: 2.15; call: inactive

What did the screen give for RGS9 (GeneID 8787) #2?
G2 robust z-score: 5.25; G2 cells, % of GMNN control: 39.9; call: active

What did the screen give for RGS9 (GeneID 8787) #3?
G2 robust z-score: 0.527; G2 cells, % of GMNN control: 6.67; call: inactive

Targets listed so far whose target name begins with A or a (3):
APAF1 (GeneID 317) #1: G2 robust z-score = 0.151; G2 cells, % of GMNN control = 4.03; call = inactive
APAF1 (GeneID 317) #2: G2 robust z-score = -1.29; G2 cells, % of GMNN control = -6.08; call = inactive
APAF1 (GeneID 317) #3: G2 robust z-score = -0.721; G2 cells, % of GMNN control = -2.11; call = inactive
